# Assay results: article PMC5856089
# No constants are given. Whether binding was seen depends on the method and setting. For some assays here: Binding seen in cells or lysates may run through a third protein. Some entries that bind do so weakly or less than the wild type. For some assays here: Where a sequence is shown, tags or fusion partners need not be part of it.
# T1: C-luc Apaf-1 (full length Apaf-1 fused through its N-terminus to the C-terminal fragment, amino acids 395-550, of P. pyralis luciferase, with C-terminal His-tag), O14727
# T1 chain: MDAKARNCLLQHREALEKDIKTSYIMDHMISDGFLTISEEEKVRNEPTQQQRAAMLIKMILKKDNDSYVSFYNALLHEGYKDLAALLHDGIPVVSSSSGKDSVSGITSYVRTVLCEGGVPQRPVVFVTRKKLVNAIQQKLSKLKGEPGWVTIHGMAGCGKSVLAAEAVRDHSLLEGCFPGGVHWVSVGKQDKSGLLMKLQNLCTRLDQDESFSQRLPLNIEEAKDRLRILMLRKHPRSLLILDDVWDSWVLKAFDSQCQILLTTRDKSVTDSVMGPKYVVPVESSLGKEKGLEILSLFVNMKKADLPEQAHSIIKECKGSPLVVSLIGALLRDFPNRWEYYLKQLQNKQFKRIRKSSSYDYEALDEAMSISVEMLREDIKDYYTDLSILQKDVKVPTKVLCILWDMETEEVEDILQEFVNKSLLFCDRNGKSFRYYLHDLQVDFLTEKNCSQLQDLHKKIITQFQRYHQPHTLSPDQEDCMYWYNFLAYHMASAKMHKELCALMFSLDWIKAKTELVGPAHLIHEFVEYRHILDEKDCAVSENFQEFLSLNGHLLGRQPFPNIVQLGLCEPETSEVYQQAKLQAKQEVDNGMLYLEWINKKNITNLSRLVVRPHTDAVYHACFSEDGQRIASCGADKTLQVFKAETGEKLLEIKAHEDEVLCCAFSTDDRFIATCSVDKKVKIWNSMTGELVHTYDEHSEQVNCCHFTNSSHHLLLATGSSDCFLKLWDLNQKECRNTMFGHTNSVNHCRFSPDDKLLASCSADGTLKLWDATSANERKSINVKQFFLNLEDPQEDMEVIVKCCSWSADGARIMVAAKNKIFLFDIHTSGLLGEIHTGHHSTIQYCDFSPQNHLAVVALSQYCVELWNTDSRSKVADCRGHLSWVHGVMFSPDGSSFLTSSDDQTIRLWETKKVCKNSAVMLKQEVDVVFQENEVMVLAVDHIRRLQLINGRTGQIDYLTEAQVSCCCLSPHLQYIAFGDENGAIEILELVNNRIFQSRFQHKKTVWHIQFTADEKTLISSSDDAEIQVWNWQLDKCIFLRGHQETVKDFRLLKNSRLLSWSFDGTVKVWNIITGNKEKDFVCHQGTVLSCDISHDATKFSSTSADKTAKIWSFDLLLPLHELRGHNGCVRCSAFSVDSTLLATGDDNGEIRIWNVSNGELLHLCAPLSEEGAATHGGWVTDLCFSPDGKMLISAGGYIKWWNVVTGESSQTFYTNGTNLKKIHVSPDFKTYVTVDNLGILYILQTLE
# Key:
# [1] = target: endogenous Apaf-1 (human (endogenous in HEK 293)) (UniProt O14727); assay: SEC; S-100 extracts with N-luc ΔApaf-1 and C-luc ΔApaf-1 mixed 1:1, with or without cytochrome c and dATP, 15 min at 25 °C; Sephacryl 300 HR column; fractions (∼700 kDa to 158 kDa) immunoblotted
# [2] = target: C-luc ΔApaf-1 (truncated Apaf-1 lacking both WD-40 subdomains, fused to the C-terminal fragment of luciferase) (UniProt O14727); assay: as above
# [3] = target: T1, C-luc Apaf-1 (full length Apaf-1 fused …); assay: SEC; data not shown: extracts with N-luc and C-luc full length Apaf-1, upon addition of cytochrome c and dATP; Sephacryl 300; conditions: remark: other sources report otherwise
# [4] = target: T1, C-luc Apaf-1 (full length Apaf-1 fused …); assay: pull-down; mixtures of cell extracts activated with or without cytochrome c and dATP (15 min, 25 °C), incubated with Ni-NTA agarose 1-2 h at 4 °C (His-tag on C-luc Apaf-1); washed with 20 mM and 165 mM imidazole; fractions immunoblotted with anti-Apaf-1; conditions: remark: other sources report otherwise
Molecule,binding [1],binding [2],binding [3],binding [4]
"C-luc ΔApaf-1 (truncated Apaf-1 lacking both WD-40 subdomains, fused to the C-terminal fragment of luciferase) (from UniProt O14727 1-589) (domain or fragment)",binds,–,–,–
"N-luc ΔApaf-1 (truncated Apaf-1 lacking both WD-40 subdomains, fused to the N-terminal fragment of luciferase) (from UniProt O14727 1-589) (domain or fragment)",binds,binds,–,–
"N-luc Apaf-1 (full length Apaf-1 fused through its N-terminus to the N-terminal fragment, amino acids 1-416, of P. pyralis luciferase), O14727 1-1248 (natural protein) MDAKARNCLLQHREALEKDIKTSYIMDHMISDGFLTISEEEKVRNEPTQQQRAAMLIKMILKKDNDSYVSFYNALLHEGYKDLAALLHDGIPVVSSSSGKDSVSGITSYVRTVLCEGGVPQRPVVFVTRKKLVNAIQQKLSKLKGEPGWVTIHGMAGCGKSVLAAEAVRDHSLLEGCFPGGVHWVSVGKQDKSGLLMKLQNLCTRLDQDESFSQRLPLNIEEAKDRLRILMLRKHPRSLLILDDVWDSWVLKAFDSQCQILLTTRDKSVTDSVMGPKYVVPVESSLGKEKGLEILSLFVNMKKADLPEQAHSIIKECKGSPLVVSLIGALLRDFPNRWEYYLKQLQNKQFKRIRKSSSYDYEALDEAMSISVEMLREDIKDYYTDLSILQKDVKVPTKVLCILWDMETEEVEDILQEFVNKSLLFCDRNGKSFRYYLHDLQVDFLTEKNCSQLQDLHKKIITQFQRYHQPHTLSPDQEDCMYWYNFLAYHMASAKMHKELCALMFSLDWIKAKTELVGPAHLIHEFVEYRHILDEKDCAVSENFQEFLSLNGHLLGRQPFPNIVQLGLCEPETSEVYQQAKLQAKQEVDNGMLYLEWINKKNITNLSRLVVRPHTDAVYHACFSEDGQRIASCGADKTLQVFKAETGEKLLEIKAHEDEVLCCAFSTDDRFIATCSVDKKVKIWNSMTGELVHTYDEHSEQVNCCHFTNSSHHLLLATGSSDCFLKLWDLNQKECRNTMFGHTNSVNHCRFSPDDKLLASCSADGTLKLWDATSANERKSINVKQFFLNLEDPQEDMEVIVKCCSWSADGARIMVAAKNKIFLFDIHTSGLLGEIHTGHHSTIQYCDFSPQNHLAVVALSQYCVELWNTDSRSKVADCRGHLSWVHGVMFSPDGSSFLTSSDDQTIRLWETKKVCKNSAVMLKQEVDVVFQENEVMVLAVDHIRRLQLINGRTGQIDYLTEAQVSCCCLSPHLQYIAFGDENGAIEILELVNNRIFQSRFQHKKTVWHIQFTADEKTLISSSDDAEIQVWNWQLDKCIFLRGHQETVKDFRLLKNSRLLSWSFDGTVKVWNIITGNKEKDFVCHQGTVLSCDISHDATKFSSTSADKTAKIWSFDLLLPLHELRGHNGCVRCSAFSVDSTLLATGDDNGEIRIWNVSNGELLHLCAPLSEEGAATHGGWVTDLCFSPDGKMLISAGGYIKWWNVVTGESSQTFYTNGTNLKKIHVSPDFKTYVTVDNLGILYILQTLE",–,–,binds,binds
